PubChem BioAssay AID1259308, NCATS – 2017
The whole screen tested about 59,000 reagents; this is a random part of them. About 1,510 of all reagents (2.6%) were called active. 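Calls use total luciferase alone and ignore viability, so some active siRNAs may act by altering cell number.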 Unmarked entries are inactive. The numbers tell different reagents against one gene apart. Further read-outs or replicates are left out here. No sequences are given here.

Aim: 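Candidate targets for better recombinant protein yield in mammalian cells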 (primary screen)
Cells: human HEK293 embryonic kidney cells stably expressing firefly luciferase (HEK-CMV-Luc2-Hygro)
Reagents: single siRNA against human genes, 0.8 pmol siRNA per well
Time to read-out: 72 h
Detection: 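Reporter luminescence and viable-cell signal on separate replicate plates, given as percent of non-targeting control and median/MAD z-scores, plus per-cell luciferase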
Scale: total luciferase, z-score and total luciferase, % of control: higher = more reporter protein produced
Hit rule: 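An siRNA counts as active if its total luciferase robust z-score exceeds 3; genes with two or more such siRNAs out of three were retested with fresh siRNAs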
Meaning of the calls: active = raised luciferase; inactive = no rise

What did the screen give for MED21 #1?
total luciferase, z-score: -2.52; total luciferase, % of control: 31.7

How did the screen score MED21 #2?
total luciferase, z-score: -2.01; total luciferase, % of control: 41.9

With MED21 #3, what does the deposit list?
total luciferase, z-score: -1.34; total luciferase, % of control: 55.2

With ADAMTS18 #1, what does the deposit list?
total luciferase, z-score: -0.899; total luciferase, % of control: 64

For ADAMTS18 #2, how do the results read?
total luciferase, z-score: -0.198; total luciferase, % of control: 78

What did the screen give for ADAMTS18 #3?
total luciferase, z-score: 0.281; total luciferase, % of control: 87.5

Which result is listed for PRR5L #1?
total luciferase, z-score: 1.39; total luciferase, % of control: 109

What did the screen give for PRR5L #2?
total luciferase, z-score: -0.358; total luciferase, % of control: 74.8

With PRR5L #3, how do the results read?
total luciferase, z-score: -1.26; total luciferase, % of control: 56.8

How did the screen score SCO2 #1?
total luciferase, z-score: 1.6; total luciferase, % of control: 114

Which result is listed for SCO2 #2?
total luciferase, z-score: 0.775; total luciferase, % of control: 97.3

With SCO2 #3, what does the deposit list?
total luciferase, z-score: -1.24; total luciferase, % of control: 57.3

With STAG3L4 #1, what was measured?
total luciferase, z-score: -0.954; total luciferase, % of control: 62.9

Which result is listed for STAG3L4 #2?
total luciferase, z-score: 0.21; total luciferase, % of control: 86.1

With STAG3L4 #3, how do the results read?
total luciferase, z-score: -0.383; total luciferase, % of control: 74.3

With VPS16 #1, how do the results read?
total luciferase, z-score: 0.25; total luciferase, % of control: 86.9

With VPS16 #2, how do the results read?
total luciferase, z-score: -2.16; total luciferase, % of control: 39

Which result is listed for VPS16 #3?
total luciferase, z-score: 1.4; total luciferase, % of control: 110

Targets above whose gene name starts with P or p (3):
PRR5L #1 | total luciferase, z-score: 1.39; total luciferase, % of control: 109
PRR5L #2 | total luciferase, z-score: -0.358; total luciferase, % of control: 74.8
PRR5L #3 | total luciferase, z-score: -1.26; total luciferase, % of control: 56.8

The listing continues.
With F8A1 #1, how do the results read?
total luciferase, z-score: 0.189; total luciferase, % of control: 85.6

With F8A1 #2, what was measured?
total luciferase, z-score: 1.3; total luciferase, % of control: 108

With F8A1 #3, how do the results read?
total luciferase, z-score: 0.285; total luciferase, % of control: 87.6

With SSU72L6 #1, what was measured?
total luciferase, z-score: 0.434; total luciferase, % of control: 90.5

What did the screen give for SSU72L6 #2?
total luciferase, z-score: -0.665; total luciferase, % of control: 68.7

What is on record for SSU72L6 #3?
total luciferase, z-score: 0.239; total luciferase, % of control: 86.6

For SCOC #1, what was measured?
total luciferase, z-score: 0.394; total luciferase, % of control: 89.7

For SCOC #2, what was measured?
total luciferase, z-score: -0.647; total luciferase, % of control: 69

With SCOC #3, how do the results read?
total luciferase, z-score: 0.588; total luciferase, % of control: 93.6

Which result is listed for NLRP12 #1?
total luciferase, z-score: -0.992; total luciferase, % of control: 62.2

What is on record for NLRP12 #2?
total luciferase, z-score: -0.0991; total luciferase, % of control: 79.9

With NLRP12 #3, what was measured?
total luciferase, z-score: -0.867; total luciferase, % of control: 64.6

Which result is listed for ZNF781 #1?
total luciferase, z-score: -0.34; total luciferase, % of control: 75.1

Which result is listed for ZNF781 #2?
total luciferase, z-score: 0.391; total luciferase, % of control: 89.7

With ZNF781 #3, how do the results read?
total luciferase, z-score: 1.9; total luciferase, % of control: 120
